Experimental data as given in patent publication US20140275485A1.
No constants are given. Whether binding was seen depends on the method and setting. Some binding calls cover weakened binding; strength is not graded here.

Assays:
[1] = target: T1, Recombinant Lp-PLA2 (human) (UniProt Q13093); assay: sandwich ELISA, goat polyclonal anti-Lp-PLA2 capture
T1 sequence (looked up): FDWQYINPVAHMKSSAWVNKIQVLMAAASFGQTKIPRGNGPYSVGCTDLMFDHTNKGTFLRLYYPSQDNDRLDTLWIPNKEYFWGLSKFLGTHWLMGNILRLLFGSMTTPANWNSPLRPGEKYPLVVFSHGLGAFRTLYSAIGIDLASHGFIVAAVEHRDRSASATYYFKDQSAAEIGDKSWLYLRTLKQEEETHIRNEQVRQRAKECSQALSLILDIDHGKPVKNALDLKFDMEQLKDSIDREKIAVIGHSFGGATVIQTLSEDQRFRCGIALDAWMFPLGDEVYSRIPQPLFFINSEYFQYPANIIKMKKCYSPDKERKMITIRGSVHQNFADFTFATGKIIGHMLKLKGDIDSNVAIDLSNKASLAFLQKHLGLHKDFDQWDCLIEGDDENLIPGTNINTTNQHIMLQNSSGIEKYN

[2] = target: T2, Lp-PLA2 antigen (human) (UniProt Q13093); assay: Luminex pairing assay; members of a bin compete for binding to an Lp-PLA2 epitope
T2 sequence (looked up): T1 sequence (looked up)

B1: LpPLA2.B38.2 (antibody, IgG1, V domains shown)
VH: EVKLEESGPELKKPGETVKISCKASGYTFTDYSVHWVKQAPGKGLKWMGWINTDTGEPTFADDFKGRFAFSLETSTSTAYLQINNLKNEDTATYFCARGDNYLYYYTMDYWGQGISVTVSS
VL: DIVLTQTHKFMSTSVGDRVNITCKASQDVNTAVAWYQQKPGQSPKLLIKWASTRHTGVPDRFTGSGSGTDYIFTISSVQAEDLALYYCQQHYSTPWTFGGGTKLEIKR
With B1 the binding [1] was “binds” and the binding [2] was “binds”.
